Measurements taken from article doi:10.1101/2020.03.12.989079.
Where two headings read alike, the source gives them in different places. No constants are given. Whether binding was seen depends on the method and setting. For part of these data: In cells and extracts the contact can be indirect. Some entries that bind do so weakly or less than the wild type. Where a sequence is shown, tags or fusion partners need not be part of it.

T1: CYCA2;3 fused to the C-terminal half of Renilla reniformis luciferase (Arabidopsis thaliana) (UniProt Q38819)
T1 sequence: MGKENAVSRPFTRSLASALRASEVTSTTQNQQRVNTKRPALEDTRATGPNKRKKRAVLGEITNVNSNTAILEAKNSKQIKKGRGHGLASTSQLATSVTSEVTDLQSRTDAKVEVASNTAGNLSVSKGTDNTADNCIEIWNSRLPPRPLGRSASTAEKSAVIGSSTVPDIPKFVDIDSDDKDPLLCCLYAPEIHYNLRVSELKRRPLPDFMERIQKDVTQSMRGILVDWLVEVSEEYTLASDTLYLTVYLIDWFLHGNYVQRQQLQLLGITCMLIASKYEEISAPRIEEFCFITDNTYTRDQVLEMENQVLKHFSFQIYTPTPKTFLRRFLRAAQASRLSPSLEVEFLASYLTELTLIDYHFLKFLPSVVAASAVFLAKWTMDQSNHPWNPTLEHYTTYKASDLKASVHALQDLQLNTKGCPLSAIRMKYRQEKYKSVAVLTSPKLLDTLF

T2: CYCD3;1 fused to the C-terminal half of Renilla reniformis luciferase (Arabidopsis thaliana) (UniProt P42753)
T2 sequence: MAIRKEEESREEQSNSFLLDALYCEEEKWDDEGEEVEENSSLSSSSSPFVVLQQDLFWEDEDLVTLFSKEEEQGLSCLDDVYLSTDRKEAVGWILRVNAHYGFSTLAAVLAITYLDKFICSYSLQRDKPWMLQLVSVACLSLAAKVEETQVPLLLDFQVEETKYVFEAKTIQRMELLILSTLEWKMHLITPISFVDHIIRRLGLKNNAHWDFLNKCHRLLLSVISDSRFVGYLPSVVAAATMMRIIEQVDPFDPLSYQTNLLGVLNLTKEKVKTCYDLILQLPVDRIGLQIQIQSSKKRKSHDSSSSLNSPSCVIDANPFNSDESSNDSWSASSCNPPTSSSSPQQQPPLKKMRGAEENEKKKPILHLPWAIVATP

T3: CYCA2;3 in pASGW (GAL4 DNA-binding domain fusion) (Arabidopsis thaliana) (UniProt Q38819)
T3 sequence: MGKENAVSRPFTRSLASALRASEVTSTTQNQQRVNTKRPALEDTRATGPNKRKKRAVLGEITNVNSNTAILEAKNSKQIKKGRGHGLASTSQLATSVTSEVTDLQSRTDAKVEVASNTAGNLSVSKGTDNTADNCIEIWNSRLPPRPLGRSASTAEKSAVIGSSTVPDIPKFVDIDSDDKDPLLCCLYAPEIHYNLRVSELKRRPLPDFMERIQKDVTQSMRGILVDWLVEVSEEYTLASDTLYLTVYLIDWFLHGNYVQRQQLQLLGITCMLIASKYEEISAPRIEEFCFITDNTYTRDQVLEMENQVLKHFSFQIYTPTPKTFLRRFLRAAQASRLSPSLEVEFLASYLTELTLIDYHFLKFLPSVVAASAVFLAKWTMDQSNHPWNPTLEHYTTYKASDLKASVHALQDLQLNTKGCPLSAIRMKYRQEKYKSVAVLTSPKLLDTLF


What was measured:
[1] = molecular target: T1, CYCA2;3 fused to the C-terminal half of Renilla reniformis luciferase (Arabidopsis thaliana); test: split reporter
[2] = molecular target: T2, CYCD3;1 fused to the C-terminal half of Renilla reniformis luciferase (Arabidopsis thaliana); test: split reporter
[3] = molecular target: T3, CYCA2;3 in pASGW (GAL4 DNA-binding domain fusion) (Arabidopsis thaliana); test: two-hybrid
[4] = molecular target: T3, CYCA2;3 in pASGW (GAL4 DNA-binding domain fusion) (Arabidopsis thaliana); test: two-hybrid; remark: listed apart in the source

Row | Binder | binding [1] | binding [2] | binding [3] | binding [4]
1 | SIAMESE (SIM) fused to the N-terminal portion of Renilla reniformis luciferase (protein, UniProt Q9LZ78 1-127) MDLDLIQDLPILNFPPAIKIRANTNRDDDGGGCTTPTSSDHKIPPTTATTPPPPPQKPRPPSTPSSLGIRSCKRKLMTSLSKYEIIVNKDEIERFFSSVYNQTMASSTTTAITVAKRRRSFRSCSRR | binds | no binding | – | –
2 | SIAMESE (SIM), wild type, in pACTGW (GAL4 transcription activation domain fusion) (protein, UniProt Q9LZ78 1-127) MDLDLIQDLPILNFPPAIKIRANTNRDDDGGGCTTPTSSDHKIPPTTATTPPPPPQKPRPPSTPSSLGIRSCKRKLMTSLSKYEIIVNKDEIERFFSSVYNQTMASSTTTAITVAKRRRSFRSCSRR | – | – | binds | binds

Second part, the binder after the results:

Row | binding [1] | binding [2] | binding [3] | binding [4] | Binder
3 | – | – | – | no binding | SIM T35D (protein, UniProt Q9LZ78 1-127) MDLDLIQDLPILNFPPAIKIRANTNRDDDGGGCTDPTSSDHKIPPTTATTPPPPPQKPRPPSTPSSLGIRSCKRKLMTSLSKYEIIVNKDEIERFFSSVYNQTMASSTTTAITVAKRRRSFRSCSRR
4 | – | – | – | no binding | SIM T35A (protein, UniProt Q9LZ78 1-127) MDLDLIQDLPILNFPPAIKIRANTNRDDDGGGCTAPTSSDHKIPPTTATTPPPPPQKPRPPSTPSSLGIRSCKRKLMTSLSKYEIIVNKDEIERFFSSVYNQTMASSTTTAITVAKRRRSFRSCSRR
